Test results: paper doi:10.1101/2023.10.06.559866

Sequences of proteins named here, by UniProt entry; tags and fusion partners are left off.
UniProt P60468: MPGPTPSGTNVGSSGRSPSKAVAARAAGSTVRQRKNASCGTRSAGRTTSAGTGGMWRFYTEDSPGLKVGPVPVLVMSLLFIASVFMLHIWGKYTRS
UniProt Q99720: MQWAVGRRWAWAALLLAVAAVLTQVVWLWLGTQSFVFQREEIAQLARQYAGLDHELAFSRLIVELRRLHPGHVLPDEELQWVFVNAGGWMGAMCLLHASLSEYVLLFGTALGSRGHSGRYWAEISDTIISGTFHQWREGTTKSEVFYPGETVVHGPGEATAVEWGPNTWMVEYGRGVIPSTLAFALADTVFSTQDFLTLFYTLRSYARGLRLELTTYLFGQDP

T1: 3x FLAG-mNeon-tagged Lrrc59 (UniProt Q96AG4)
T1 sequence: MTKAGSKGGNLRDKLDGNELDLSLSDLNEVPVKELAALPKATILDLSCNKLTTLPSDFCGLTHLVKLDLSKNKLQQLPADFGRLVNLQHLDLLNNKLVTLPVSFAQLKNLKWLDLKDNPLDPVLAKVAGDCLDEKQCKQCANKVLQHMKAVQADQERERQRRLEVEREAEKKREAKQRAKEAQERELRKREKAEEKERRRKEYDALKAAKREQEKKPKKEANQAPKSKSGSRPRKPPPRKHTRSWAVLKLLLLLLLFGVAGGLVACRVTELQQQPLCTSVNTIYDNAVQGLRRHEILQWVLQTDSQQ

B1: SRPRB (SRβ) (protein, UniProt Q9Y5M8 1-271)
chain: MASADSRRVADGGGAGGTFQPYLDTLRQELQQTDPTLLSVVVAVLAVLLTLVFWKLIRSRRSSQRAVLLVGLCDSGKTLLFVRLLTGLYRDTQTSITDSCAVYRVNNNRGNSLTLIDLPGHESLRLQFLERFKSSARAIVFVVDSAAFQREVKDVAEFLYQVLIDSMGLKNTPSFLIACNKQDIAMAKSAKLIQQQLEKELNTLRVTRSAAPSTLDSSSTAPAQLGKKGKEFEFSQLPLKVEFLECSAKGGRGDVGSADIQDLEKWLAKIA

Biological target: T1, 3x FLAG-mNeon-tagged Lrrc59
Experiment: affinity purification with mass spectrometry

Molecule | binding
SEC61B (Sec61β) (from UniProt P60468 1-96) | binds
Sigma-1 receptor (from UniProt Q99720 1-223) | binds
B1 | binds

Results are given in words; binding and its absence hold for the method and conditions named. Binding seen in cells or lysates may run through a third protein. These calls come from enrichment with a bait or labelling near it, and not all partners need be listed. Tags and fused reporters may be left off the sequences shown.
